Taken from: PubChem BioAssay AID1259254 (NCATS, 2017)

Test: 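Gene knock-downs that lead to re-replication, shown by excess G2 DNA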 (primary screen)
System: human HCT116 colorectal cancer cells
Reagents: single siRNA against human genes
Duration: 3 days
Read-out: 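Nuclei stained with Hoechst and imaged; cell-cycle phase assigned by DNA content; G2 share scaled per plate, non-targeting siRNA 0%, GMNN siRNA 100%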
Direction: G2 robust z-score: higher = more G2 cells, more excess DNA replication
Hit rule: 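Active siRNAs have a G2 robust z of 5 or more median absolute deviations over the median, which in these data means about 38% or higher of GMNN control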
This is an unselected part of about 59,000 deposited reagents. Over the whole deposit, about 1,550 (2.6%) were called active. 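G2 share is only a proxy for re-replication; each gene was hit by three separate siRNAs, and active genes were retested.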 Unmarked entries are inactive. Reagents against one gene are numbered here. Further read-outs or replicates are left out here. Not given: the amount of reagent.

G2 robust z-score, by gene and reagent
CBLN2 (cerebellin 2 precursor): #1 0.0411; #2 -0.242; #3 -0.215
PLD2 (phospholipase D2): #1 -0.528; #2 -0.101; #3 -0.313
IGFLR1 (IGF like family receptor 1): #1 7.81 (active); #2 -0.483; #3 -0.397
SLC26A10P: #1 1.08; #2 2.08; #3 3.28
UBE2E1 (ubiquitin conjugating enzyme E2 E1): #1 -1.11; #2 0.389; #3 0.564
SMIM43 (small integral membrane protein 43): #1 -0.799; #2 2.09; #3 -0.856
ARMC6 (armadillo repeat containing 6): #1 -0.485; #2 -0.111; #3 0.203
KLHL1 (kelch like family member 1): #1 1.1; #2 4.38; #3 -0.392
PCDHGB3 (protocadherin gamma subfamily B, 3): #1 1.22; #2 -1.46; #3 -0.69
TMEM196 (transmembrane protein 196): #1 0.679; #2 -0.311; #3 0.107
ZNF700 (zinc finger protein 700): #1 -0.441; #2 2.46; #3 0.958
KCNK6 (potassium two pore domain channel subfamily K member 6): #1 3.79; #2 0.58; #3 0.798
FCMR (Fc mu receptor): #1 -0.112; #2 1.55; #3 -0.158
ENG (endoglin): #1 0.492; #2 -1.3; #3 2.16
GIGYF1 (GRB10 interacting GYF protein 1): #1 -0.0929; #2 -0.678; #3 1.97
IGFBP6 (insulin like growth factor binding protein 6): #1 -0.085; #2 0.196; #3 -0.0297
PLEKHA8 (pleckstrin homology domain containing A8): #1 -0.373; #2 -0.21; #3 -0.815
DKC1 (dyskerin pseudouridine synthase 1): #1 0.741; #2 -0.477; #3 3.25
FAM50B (family with sequence similarity 50 member B): #1 -0.702; #2 1.53; #3 1.56
ERBB2 (erb-b2 receptor tyrosine kinase 2): #1 0.588; #2 -0.178; #3 -0.0219
IRAG1 (inositol 1,4,5-triphosphate receptor associated 1): #1 0.234; #2 2.42; #3 -1.21
GRINA: #1 0.976; #2 2.72; #3 -0.322
PRP4K (pre-mRNA processing factor kinase PRP4K): #1 -1.03; #2 -0.684; #3 -1.15

Already shown: an excerpt of the list.
G2 robust z-score, by gene and reagent
IGFLR1 (IGF like family receptor 1): #3 -0.397
SLC26A10P: #1 1.08; #2 2.08; #3 3.28
UBE2E1 (ubiquitin conjugating enzyme E2 E1): #1 -1.11; #2 0.389; #3 0.564
SMIM43 (small integral membrane protein 43): #1 -0.799; #2 2.09; #3 -0.856
ARMC6 (armadillo repeat containing 6): #1 -0.485
